# Test results reported in patent US20260199497A1 (priority 2023, published 2026).
# Experiment: general procedure: Fmoc solid-phase peptide synthesis; 2-CTC resin; HATU/DIPEA (solution-phase conjugations)
# Settings: whole synthesis, scale 3.00 mmol, TFA salt
substance,measurement,value
"1-(3,5-bis(2-(methylthio)pyrimidin-5-yl)phenyl)-2,5,8,11,14,17,20,23,26,29-decamethyl-1,4,7,10,13,16,19,22,25,28-decaoxo-2,5,8,11,14,17,20,23,26,29-decaazahentriacontane-31-carboxylic acid",isolated mass,1117.1 mg
